From patent US20190328836A1
These are yes or no findings as the source states them, for the method shown. In cells and extracts the contact can be indirect. Some binding calls cover weakened binding; strength is not graded here.

Protein sequences, listed by entry. Tags and fused reporters are not part of them. Lines headed by an entry give the natural chain unless they say otherwise; changes in a name come on top.
UniProt Q9JLV1: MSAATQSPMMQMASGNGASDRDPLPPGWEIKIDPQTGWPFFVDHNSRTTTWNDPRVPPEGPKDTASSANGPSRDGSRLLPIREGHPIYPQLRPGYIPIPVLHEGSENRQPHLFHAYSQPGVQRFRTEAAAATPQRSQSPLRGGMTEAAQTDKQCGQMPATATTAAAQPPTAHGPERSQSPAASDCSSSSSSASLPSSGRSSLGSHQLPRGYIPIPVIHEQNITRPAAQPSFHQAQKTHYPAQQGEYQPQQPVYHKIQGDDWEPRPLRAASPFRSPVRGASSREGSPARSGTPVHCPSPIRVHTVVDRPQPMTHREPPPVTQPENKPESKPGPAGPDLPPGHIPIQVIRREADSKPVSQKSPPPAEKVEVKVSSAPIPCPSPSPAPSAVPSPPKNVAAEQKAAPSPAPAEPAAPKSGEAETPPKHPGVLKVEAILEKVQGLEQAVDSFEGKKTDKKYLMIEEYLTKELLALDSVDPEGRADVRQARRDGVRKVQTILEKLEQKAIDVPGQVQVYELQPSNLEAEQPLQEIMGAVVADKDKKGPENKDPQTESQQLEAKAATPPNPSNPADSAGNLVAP

Tests used:
[1] = target: T1, HspB8 (small heat shock protein) (mouse (BALB/c primary muscle cells)) (UniProt Q9JK92); assay: co-immunoprecipitation of FLAG-BAG3 from total cell lysates, western blot (FIG. 8B)
T1 sequence (looked up): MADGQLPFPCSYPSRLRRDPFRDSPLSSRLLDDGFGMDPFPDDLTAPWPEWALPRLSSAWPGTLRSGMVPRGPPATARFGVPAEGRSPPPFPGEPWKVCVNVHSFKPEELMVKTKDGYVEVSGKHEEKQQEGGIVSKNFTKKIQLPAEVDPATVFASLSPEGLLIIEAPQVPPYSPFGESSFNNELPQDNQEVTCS

[2] = target: T1, HspB8 (small heat shock protein) (mouse (BALB/c primary muscle cells)); assay: co-immunoprecipitation of FLAG-tagged BAG3 from BALB/c primary muscle cell lysates after experimental ischemia, western blot

binding [1]: binds
binding [2]: binds
Substance: BAG3^Ile81 (mouse Bcl-2-associated athanogene-3, BL6 variant with isoleucine at residue 81), C-terminal FLAG-tagged (from UniProt Q9JLV1 1-577)
